The other results are listed elsewhere or left out.
compound: c1cn2cc(-c3ccc4cn[nH]c4c3)nc(Nc3ccc(N4CCOCC4)cc3)c2n1 [entospletinib]; test: log2 fold change, soluble protein after heating vs DMSO (PISA); higher = thermal stabilisation; K562 lysate, 10 uM; active = over 0.2 and 3.5 SD of the protein, either way, in both replicates (recomputed)
Outline: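 Dounce homogenisation of K562 pellets in PBS pH 7.4 with 1 mM MgCl2 produced a crude extract, used at 1 mg/mL protein. Exposure to 10 μM compound lasted 30 min, and aliquots were then heated for 3 min across 48°C-58°C, pooled and brought to 0.5% NP-40 at 4°C. The supernatant after 21,000xg for 90 min was quantified by TMTpro 16plex LC-MS/MS with channel sums equalised. Duplicate values are given as log-two fold change in thermal stability relative to solvent controls.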

The chains behind the UniProt entries cited, without tags or fusion partners. Where a name states a change or a piece, a line headed by the entry shows the natural chain unless it says otherwise.
UniProt Q9P2D3: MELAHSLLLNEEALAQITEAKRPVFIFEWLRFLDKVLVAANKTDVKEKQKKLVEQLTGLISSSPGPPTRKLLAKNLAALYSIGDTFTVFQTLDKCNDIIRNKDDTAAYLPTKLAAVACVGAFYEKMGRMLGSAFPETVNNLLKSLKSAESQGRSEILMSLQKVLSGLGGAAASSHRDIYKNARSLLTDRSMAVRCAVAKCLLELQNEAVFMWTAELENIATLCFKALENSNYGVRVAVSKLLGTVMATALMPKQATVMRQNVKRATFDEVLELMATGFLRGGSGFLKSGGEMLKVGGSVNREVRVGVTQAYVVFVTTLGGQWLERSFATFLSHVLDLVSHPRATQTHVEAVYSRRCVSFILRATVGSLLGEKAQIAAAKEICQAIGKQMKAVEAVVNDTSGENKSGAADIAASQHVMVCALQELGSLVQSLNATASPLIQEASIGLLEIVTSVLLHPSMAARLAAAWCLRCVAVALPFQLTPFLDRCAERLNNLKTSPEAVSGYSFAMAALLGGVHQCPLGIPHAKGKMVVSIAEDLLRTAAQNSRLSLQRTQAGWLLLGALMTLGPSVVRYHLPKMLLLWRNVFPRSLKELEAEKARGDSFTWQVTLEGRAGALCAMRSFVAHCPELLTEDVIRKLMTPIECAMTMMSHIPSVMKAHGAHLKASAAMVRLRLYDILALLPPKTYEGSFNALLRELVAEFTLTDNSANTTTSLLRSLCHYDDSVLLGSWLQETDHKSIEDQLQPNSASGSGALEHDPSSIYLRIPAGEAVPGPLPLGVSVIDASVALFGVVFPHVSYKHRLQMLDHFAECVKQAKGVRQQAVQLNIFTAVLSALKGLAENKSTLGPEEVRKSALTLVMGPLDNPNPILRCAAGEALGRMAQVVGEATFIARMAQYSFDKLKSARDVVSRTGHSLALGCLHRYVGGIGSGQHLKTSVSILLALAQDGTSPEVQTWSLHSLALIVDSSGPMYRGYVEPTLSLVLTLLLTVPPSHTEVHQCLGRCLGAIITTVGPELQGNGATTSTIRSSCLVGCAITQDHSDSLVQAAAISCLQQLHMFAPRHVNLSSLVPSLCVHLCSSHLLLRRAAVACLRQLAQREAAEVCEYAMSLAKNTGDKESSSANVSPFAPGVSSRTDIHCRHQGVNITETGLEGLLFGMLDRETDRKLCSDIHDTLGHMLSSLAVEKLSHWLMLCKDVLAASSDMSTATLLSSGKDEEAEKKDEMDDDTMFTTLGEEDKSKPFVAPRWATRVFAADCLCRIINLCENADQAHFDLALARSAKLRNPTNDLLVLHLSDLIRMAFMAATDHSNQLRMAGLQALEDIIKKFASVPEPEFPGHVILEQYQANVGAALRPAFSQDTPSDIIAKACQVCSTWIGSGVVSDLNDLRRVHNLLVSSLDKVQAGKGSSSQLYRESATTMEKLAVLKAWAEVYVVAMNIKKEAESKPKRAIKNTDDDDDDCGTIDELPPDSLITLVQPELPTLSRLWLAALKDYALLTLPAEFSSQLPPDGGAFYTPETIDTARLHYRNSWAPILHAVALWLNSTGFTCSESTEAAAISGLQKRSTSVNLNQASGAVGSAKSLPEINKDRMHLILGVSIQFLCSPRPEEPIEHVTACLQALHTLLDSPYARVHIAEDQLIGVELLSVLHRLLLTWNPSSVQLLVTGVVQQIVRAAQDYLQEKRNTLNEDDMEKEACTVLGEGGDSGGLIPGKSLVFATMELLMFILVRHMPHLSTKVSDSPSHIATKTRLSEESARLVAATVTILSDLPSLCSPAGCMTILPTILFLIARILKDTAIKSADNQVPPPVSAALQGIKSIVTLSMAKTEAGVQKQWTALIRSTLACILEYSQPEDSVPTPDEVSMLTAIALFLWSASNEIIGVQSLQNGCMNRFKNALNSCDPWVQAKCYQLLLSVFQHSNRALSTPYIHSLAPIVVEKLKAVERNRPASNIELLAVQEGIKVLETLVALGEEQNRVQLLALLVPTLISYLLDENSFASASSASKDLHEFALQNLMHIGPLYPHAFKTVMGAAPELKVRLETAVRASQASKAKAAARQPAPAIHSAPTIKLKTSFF
UniProt P48637: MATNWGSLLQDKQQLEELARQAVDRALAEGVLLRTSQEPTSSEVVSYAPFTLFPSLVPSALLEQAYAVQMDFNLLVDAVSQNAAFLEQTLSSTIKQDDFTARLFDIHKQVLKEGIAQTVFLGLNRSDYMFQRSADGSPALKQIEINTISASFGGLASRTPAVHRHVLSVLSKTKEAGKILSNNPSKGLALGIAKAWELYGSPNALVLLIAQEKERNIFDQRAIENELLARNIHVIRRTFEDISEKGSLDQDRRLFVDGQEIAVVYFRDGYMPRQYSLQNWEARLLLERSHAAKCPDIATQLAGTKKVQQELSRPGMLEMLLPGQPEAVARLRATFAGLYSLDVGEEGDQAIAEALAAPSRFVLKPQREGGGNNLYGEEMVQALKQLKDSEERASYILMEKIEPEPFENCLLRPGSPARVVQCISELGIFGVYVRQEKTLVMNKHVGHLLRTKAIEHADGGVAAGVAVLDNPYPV
UniProt P16403, whole entry, looked up: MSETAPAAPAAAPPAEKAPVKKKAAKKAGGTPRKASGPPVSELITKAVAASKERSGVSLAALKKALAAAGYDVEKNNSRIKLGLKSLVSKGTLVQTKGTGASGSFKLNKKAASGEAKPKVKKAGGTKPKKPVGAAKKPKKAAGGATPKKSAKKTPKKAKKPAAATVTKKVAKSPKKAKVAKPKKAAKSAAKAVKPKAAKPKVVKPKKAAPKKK
UniProt P02100: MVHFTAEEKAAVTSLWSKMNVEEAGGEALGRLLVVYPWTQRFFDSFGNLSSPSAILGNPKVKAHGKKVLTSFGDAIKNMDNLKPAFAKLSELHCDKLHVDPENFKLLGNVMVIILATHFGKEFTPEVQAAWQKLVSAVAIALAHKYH
UniProt Q9H6D7: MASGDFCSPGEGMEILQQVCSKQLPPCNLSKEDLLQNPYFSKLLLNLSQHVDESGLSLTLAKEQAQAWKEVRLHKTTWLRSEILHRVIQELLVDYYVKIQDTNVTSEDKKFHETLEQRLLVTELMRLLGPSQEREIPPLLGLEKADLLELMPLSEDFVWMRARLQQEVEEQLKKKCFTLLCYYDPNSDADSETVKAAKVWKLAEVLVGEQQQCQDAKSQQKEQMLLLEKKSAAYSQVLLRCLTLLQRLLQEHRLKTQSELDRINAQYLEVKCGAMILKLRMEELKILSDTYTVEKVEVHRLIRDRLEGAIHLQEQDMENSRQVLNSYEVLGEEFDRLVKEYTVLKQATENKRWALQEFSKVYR
UniProt P55084: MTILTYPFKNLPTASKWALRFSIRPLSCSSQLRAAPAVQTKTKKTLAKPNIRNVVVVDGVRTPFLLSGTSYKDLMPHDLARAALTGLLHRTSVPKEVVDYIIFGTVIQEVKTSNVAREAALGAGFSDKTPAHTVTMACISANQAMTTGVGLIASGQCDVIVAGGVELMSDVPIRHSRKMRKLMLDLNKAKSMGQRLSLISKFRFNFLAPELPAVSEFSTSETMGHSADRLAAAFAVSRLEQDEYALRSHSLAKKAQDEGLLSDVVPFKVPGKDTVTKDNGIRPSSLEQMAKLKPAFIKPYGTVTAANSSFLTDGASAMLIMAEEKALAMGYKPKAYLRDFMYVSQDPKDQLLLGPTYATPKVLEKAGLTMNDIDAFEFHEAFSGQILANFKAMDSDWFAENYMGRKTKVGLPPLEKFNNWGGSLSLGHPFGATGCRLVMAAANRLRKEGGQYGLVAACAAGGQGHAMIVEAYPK
UniProt P69905, whole entry, looked up: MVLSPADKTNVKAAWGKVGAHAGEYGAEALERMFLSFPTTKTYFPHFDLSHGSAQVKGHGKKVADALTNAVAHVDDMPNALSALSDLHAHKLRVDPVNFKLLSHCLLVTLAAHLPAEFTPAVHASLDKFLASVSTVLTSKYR
UniProt Q9UBN7: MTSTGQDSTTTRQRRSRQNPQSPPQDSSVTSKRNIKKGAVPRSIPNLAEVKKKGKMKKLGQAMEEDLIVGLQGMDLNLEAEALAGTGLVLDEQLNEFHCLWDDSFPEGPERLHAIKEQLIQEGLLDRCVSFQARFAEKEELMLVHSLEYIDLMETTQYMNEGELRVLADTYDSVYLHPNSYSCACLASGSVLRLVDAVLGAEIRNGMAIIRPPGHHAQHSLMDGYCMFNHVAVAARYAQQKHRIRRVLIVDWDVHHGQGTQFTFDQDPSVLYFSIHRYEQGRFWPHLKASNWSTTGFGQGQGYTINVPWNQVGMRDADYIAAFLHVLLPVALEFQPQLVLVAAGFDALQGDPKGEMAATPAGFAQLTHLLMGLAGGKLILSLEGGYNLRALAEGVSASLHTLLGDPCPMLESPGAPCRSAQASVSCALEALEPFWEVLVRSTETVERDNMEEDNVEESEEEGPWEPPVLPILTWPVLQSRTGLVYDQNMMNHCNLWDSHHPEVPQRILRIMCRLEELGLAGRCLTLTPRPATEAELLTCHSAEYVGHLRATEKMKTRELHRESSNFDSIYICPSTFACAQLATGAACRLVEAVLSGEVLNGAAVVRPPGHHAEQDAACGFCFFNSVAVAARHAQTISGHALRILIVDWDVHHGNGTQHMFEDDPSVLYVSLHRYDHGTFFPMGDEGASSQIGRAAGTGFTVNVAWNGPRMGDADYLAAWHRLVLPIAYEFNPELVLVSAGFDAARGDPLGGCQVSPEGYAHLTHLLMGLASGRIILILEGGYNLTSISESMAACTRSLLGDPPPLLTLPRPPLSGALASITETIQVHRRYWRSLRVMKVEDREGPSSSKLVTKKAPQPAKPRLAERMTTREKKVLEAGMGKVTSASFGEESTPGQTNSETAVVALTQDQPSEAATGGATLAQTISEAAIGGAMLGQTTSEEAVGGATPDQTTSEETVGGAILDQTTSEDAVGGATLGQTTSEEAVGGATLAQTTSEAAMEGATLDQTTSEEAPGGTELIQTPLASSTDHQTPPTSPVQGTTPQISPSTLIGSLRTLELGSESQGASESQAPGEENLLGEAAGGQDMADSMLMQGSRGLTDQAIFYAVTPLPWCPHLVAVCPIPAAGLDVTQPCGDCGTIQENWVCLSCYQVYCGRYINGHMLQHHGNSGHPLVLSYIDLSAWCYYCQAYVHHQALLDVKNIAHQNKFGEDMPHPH
UniProt P21266: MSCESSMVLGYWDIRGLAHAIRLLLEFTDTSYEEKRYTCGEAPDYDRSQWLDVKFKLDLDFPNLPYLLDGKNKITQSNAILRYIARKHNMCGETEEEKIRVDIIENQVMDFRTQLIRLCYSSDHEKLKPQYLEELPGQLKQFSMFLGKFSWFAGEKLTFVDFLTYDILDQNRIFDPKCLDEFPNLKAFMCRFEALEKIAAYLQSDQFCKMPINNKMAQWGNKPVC
UniProt Q8TD30: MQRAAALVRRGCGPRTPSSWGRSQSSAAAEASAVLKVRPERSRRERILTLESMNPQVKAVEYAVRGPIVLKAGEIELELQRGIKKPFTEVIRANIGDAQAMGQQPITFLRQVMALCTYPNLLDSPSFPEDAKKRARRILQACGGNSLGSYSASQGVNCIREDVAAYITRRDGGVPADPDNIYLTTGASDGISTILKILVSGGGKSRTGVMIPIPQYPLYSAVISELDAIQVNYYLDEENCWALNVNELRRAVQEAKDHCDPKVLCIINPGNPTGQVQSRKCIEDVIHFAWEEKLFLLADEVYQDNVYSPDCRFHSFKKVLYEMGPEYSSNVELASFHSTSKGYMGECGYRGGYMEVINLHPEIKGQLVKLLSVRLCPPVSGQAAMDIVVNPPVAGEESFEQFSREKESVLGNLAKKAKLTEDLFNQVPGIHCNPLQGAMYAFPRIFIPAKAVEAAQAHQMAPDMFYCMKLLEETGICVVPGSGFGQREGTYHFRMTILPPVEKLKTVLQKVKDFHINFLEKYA
UniProt P13984, whole entry, looked up: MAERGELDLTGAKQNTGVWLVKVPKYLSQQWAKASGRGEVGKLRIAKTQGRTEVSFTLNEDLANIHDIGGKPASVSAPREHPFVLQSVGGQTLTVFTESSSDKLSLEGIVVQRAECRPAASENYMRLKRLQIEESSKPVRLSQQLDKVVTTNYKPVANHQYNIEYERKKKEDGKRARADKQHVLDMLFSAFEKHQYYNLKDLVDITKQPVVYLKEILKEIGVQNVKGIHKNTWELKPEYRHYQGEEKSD
UniProt Q92759: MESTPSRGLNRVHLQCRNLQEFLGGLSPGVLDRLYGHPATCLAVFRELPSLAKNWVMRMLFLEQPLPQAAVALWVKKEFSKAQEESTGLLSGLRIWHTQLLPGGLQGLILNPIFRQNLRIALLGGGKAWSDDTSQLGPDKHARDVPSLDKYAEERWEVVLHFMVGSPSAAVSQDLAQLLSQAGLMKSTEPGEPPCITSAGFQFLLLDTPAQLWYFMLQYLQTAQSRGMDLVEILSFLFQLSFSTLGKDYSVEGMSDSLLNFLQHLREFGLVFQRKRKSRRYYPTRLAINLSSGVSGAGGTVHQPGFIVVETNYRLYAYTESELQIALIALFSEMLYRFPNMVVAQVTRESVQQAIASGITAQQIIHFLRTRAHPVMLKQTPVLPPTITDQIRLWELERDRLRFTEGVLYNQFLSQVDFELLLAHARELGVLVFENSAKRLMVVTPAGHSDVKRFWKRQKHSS

log2 fold change, inactive:
HEATR5B (UniProt Q9P2D3) -0.021
HAUS5 (UniProt O94927) 0.013
HEATR3 (UniProt Q7Z4Q2) -0.006
GSK3B isoform 2 (UniProt P49841) 0.05
GTPBP1 (UniProt O00178) 0.008
GRAP2 (UniProt O75791) -0.088
GTF2H2 (UniProt Q13888) 0.074
GSS (UniProt P48637) 0
GTF2H1 (UniProt P32780) 0.035
HBS1L isoform 2 (UniProt Q9Y450) -0.012
GRB2 (UniProt P62993) 0.007
H1-2 (UniProt P16403) 0.018
H3-3A (UniProt P84243) -0.035
GYPA (UniProt P02724) 0.019
HAUS8 (UniProt Q9BT25) -0.051
HBE1 (UniProt P02100) -0.078
HDAC5 isoform 3 (UniProt Q9UQL6) -0.02
HAUS4 (UniProt Q9H6D7) -0.018
H1FX (UniProt Q92522) -0.008
HADHB (UniProt P55084) 0.063
GSKIP (UniProt Q9P0R6) -0.134
GTF2E1 (UniProt P29083) -0.013
HBA1 (UniProt P69905) -0.048
GTF3C3 (UniProt Q9Y5Q9) -0.052
HDAC6 (UniProt Q9UBN7) 0.007
GRHPR (UniProt Q9UBQ7) 0.028
HAUS3 (UniProt Q68CZ6) 0.007
GSTM3 (UniProt P21266) 0.02
GTPBP4 (UniProt Q9BZE4) 0.016
HDAC3 (UniProt O15379) 0
GPT2 (UniProt Q8TD30) -0.068
GTF2F2 (UniProt P13984) 0.003
GTSF1 (UniProt Q8WW33) 0.009
GTF2H4 (UniProt Q92759) 0.046

2 records drawn at random from the list so far, as already listed:
log2 fold change, inactive:
GSS (UniProt P48637) 0
GTF2F2 (UniProt P13984) 0.003
